Literature values in patent US20130035361A1, “USE OF ERGOTHIONEINE AS A PRESERVATIVE IN FOODS AND BEVERAGES” (priority 2007, published 2013).
At least one compound was matched to its structure with a doubt left.

Conditions: cited from earlier work

C[N+](C)(C)[C@@H](Cc1c[nH]c(=S)[nH]1)C(=O)[O-] [L-ergothioneine]
toxicity: No toxicity
